Part of at least one peptide drawing is inferred or uncertain, most often the ends. Ends that are not written are not given here.
What was measured:
[1] = tested on: primary bovine aortic endothelial cells (BAEC); assay: Migration assay in modified Boyden chambers, BAEC; type: cell-based; conditions: peptide 10 ng/ml
[2] = tested on: primary rat aorta smooth muscle cells (RASMC); assay: Migration (chemotaxis) assay in modified Boyden chambers, RASMC; type: cell-based; conditions: chemotaxis induced by PDGF-BB (10 ng/ml) and FCS
[3] = tested on: primary rat aorta smooth muscle cells (RASMC); assay: Proliferation assay, RASMC; type: cell-based; conditions: PDGF-BB 10 ng/ml; time course up to three days; peptide 10 ng/ml
Experimental: This test was carried out on Primary rat aorta smooth muscle cells (RASMC) obtained from six-month old male Wistar rats following a well known technique (Sterpetti, A. V. et al., 1992, J. Vasc. Surg., 6, 16–20); primary bovine aortic endothelial cells (BAEC) were obtained according to previously described protocols (D'Arcangelo, D. et al., 2000, Circ.Res., 86, 312–318).
Proliferation assay was carried out on primary rat aorta SMC and on primary bovine aortic endothelial cells (BAEC). Cells were plated in six-well plates (1×10^5 cells/plate) and grown for 24 hours in Dulbecco Modified eagle's medium (DMEM) supplemented with 10% FBS, at 37° C. in 5% CO2. Then, the medium was replaced with DMEM medium containing 0.1% BSA for 24 hours. Subsequently, the medium was replaced with fresh medium containing either 0.1% BSA alone or 0.1% BSA with growth factors at 10 ng/ml final concentration or fetal calf serum (FCS) al 10%, in the absence or in the presence of PEP1 or control peptide. Each assay was carried out for mounting period of time up to a maximum time of three days and the cell were harvested and counted with hemacytometer.

[4] = tested on: bFGF-induced angiogenesis; assay: Angiogenesis on reconstituted basement membrane (Matrigel) plugs; type: in vivo; conditions: plugs with bFGF 150 ng/ml and PEP1 10 micrograms/ml, subcutaneous, CD1 mice, excised after 7 days

DPHIKLQLQAE [PEP1, Asp-Pro-His-Ile-Lys-Leu-Gln-Leu-Gln-Ala-Glu]
inhibition of BAEC migration ([1]; chemotaxis induced by bFGF (10 ng/ml), PDGF-BB (10 ng/ml) or FCS, in every condition, 5 hours): more than 50% | effect on Endothelial cell migration induced by other chemoattractants (specificity) ([1]; migration induced by aFGF, VEGF, EGF or Fibronectin (10 ng/ml)): do not affect | inhibition of RASMC migration [2]: about 60% | effect on RASMC proliferation induced by PDGF-BB [3]: block almost completely cell proliferation | inhibition of blood vessel formation induced by bFGF (vessels per mm^2 in plugs) vs bFGF alone [4]: 46%

Reference: patent publication US7009036B2, “Peptide inhibiting platelet derived growth factor (PDGF-BB) and fibroblast growth factor (bFGF) activity” (Provincia Italiana Della Congregazione Dei Figli …, priority 2001, dated 2006)
